Measured values from US20120202876A1, “METHODS OF TREATING DISEASES WITH PROANTHOCYANIDIN OLIGOMERS SUCH AS CROFELEMER” (NAPO PHARMACEUTICALS, INC., priority 2009, published 2012).
The source holds more than one record for some entries. This is not the full list of results. An entry can have further records. The values listed for one entry do not match, cause unknown; dose, time, organism, isomer or construct need not be as stated for each record.

Amino acid sequences for entries named in this document (tags omitted).
UniProt P13569, whole entry: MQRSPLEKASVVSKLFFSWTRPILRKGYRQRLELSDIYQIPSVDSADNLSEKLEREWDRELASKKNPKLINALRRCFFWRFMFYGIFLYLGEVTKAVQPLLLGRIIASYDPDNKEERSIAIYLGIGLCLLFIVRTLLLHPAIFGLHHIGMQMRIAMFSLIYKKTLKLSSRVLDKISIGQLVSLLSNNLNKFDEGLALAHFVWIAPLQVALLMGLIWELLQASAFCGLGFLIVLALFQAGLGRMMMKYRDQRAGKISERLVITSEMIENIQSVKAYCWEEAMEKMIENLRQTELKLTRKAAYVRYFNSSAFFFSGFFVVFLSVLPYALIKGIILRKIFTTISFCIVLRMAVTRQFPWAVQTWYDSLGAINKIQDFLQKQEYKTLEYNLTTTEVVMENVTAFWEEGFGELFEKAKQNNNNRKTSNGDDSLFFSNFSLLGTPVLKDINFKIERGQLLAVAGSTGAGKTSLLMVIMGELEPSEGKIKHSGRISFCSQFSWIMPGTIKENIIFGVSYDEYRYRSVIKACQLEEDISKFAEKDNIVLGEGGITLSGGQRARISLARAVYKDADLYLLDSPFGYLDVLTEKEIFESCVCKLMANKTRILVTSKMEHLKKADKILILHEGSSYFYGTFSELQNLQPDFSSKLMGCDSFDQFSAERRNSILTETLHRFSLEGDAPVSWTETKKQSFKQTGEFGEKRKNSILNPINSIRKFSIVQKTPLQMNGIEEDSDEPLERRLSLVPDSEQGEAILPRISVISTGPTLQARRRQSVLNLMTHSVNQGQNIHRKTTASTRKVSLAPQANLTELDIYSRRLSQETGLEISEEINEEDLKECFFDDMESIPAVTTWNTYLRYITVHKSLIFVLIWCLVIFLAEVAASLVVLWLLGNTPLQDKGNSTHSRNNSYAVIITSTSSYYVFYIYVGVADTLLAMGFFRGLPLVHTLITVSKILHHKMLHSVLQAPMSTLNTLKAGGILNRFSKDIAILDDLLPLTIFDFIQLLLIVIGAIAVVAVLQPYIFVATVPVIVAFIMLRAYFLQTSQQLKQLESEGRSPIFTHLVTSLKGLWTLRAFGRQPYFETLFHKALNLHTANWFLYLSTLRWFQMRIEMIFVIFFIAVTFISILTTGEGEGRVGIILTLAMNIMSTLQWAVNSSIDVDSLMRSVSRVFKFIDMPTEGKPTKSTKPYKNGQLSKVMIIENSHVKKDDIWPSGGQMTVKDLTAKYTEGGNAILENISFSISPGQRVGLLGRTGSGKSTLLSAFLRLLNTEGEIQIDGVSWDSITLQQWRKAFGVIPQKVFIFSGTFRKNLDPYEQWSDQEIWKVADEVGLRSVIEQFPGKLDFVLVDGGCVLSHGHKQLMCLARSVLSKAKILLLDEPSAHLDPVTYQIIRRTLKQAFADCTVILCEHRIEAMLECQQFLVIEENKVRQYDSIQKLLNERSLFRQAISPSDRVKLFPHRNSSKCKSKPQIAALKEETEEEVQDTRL

Biological target: human CFTR (Homo sapiens, UniProt P13569)
Experiment: Apical membrane Cl− current in CFTR-expressing FRT cells
Conditions: CFTR activated by CPT-cAMP; no crofelemer pre-treatment

Structure (SMILES) | maximal inhibition of CFTR Cl− current
O=C(O)c1ccc(/C=C2\SC(=S)N(c3cccc(C(F)(F)F)c3)C2=O)cc1 | approximately 100% and 100%
O=C(CNc1ccc2ccccc2c1)N/N=C/c1cc(Br)c(O)c(Br)c1O [GlyH-101] | approximately 100% and 100%
